PubChem BioAssay AID504467 (National Center for Advancing Translational Sciences (NCATS), 2011)
About 7,700 (2.3%) of roughly 330,000 compounds were called active. The shares of active, inactive and inconclusive entries below differ from those in the screen. Calls follow the shape of the dose curve; as a rule, active = well fitted inhibition curve with a large enough effect; inconclusive = small, poorly fitted or top-dose-only effect, or effect the other way; inactive = flat fitted curve, though single readings scatter. Where the call is inconclusive, the potency comes from a doubtful curve fit.

experiment: qHTS screen for small molecules that inhibit ELG1-dependent DNA repair in human embryonic kidney (HEK293T) cells expressing luciferase-tagged ELG1; conditions: HEK293T ELG1-luciferase reporter, luminescence, 16 h, DNA damage induced by 5-fluorouridine; activity change, negative = inhibition: at 46.1 µM (top of the series); also: nearly all actives have a fitted effect of over 55% in size
In short: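 In this reporter screen, reduction of luminescence relative to DMSO vehicle indicated activity. Compounds and 5-fluorouridine were added together to 2,000 cells per well, incubated for 16 hr at 37 °C, then developed with ONE-Glo.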
% is scaled to controls: 0 for no effect and ±100 for the full control effect; potency is read from the fitted curve at half-maximal effect.

Row | Compound | Potency | activity change, negative = inhibition
1 | CCc1ccc(NC(=O)CN2CCC(C(=O)c3ccc(OC)cc3)CC2)cc1 | inconclusive: 29.1 µM [inhibitor, single point] | –
2 | Cn1cccc1C(=O)C(=O)Nc1cc(Cl)cc(Cl)c1 | inconclusive: 20.6 µM [activator, partial curve] | –
3 | CCN(C(=O)COc1cc(=O)n(CC)c2ccccc12)c1cc(Cl)ccc1OC | active: 20.6 µM | –
4 | CCOC(=O)N1CCN(CC(O)COC2CC(C)CCC2C(C)C)CC1 (configuration not stated) | – | inactive: -2.51%
5 | CCCCNC(=O)c1ccc2c(SCC(=O)O)c3c(nc2c1)CCCC3 | – | inactive: 4.65%
6 | Cc1nc(C)c(-c2ccc(SCC(=O)Nc3ccccc3)nn2)s1 | inconclusive: 23.1 µM [inhibitor, single point] | –
7 | Nc1c(C(=O)Nc2ccccc2)sc2nc(-c3cccnc3)ccc12 | inconclusive: 5.8 µM [activator, full curve, poor fit] | –
8 | CCN(CCNC(=O)C1CCC(=O)N1Cc1ccc(C)cc1)c1ccccc1 (configuration not stated) | – | inactive: -7.04%
9 | O=C(O)COc1ccc(NC(=O)c2ccc3c(c2)C(=O)N(C2CCCCC2)C3=O)cc1 | inconclusive: 5.17 µM [inhibitor, partial curve] | –
10 | Cc1ccc(S(=O)(=O)N2CCN(Cc3cc(C(C)C)ccc3O)CC2)cc1 | inconclusive: 29.1 µM [inhibitor, single point] | –
11 | O=C(NCCOc1ccccc1F)c1ccc2c(=O)n3c(nc2c1)CCC3 | inconclusive: 2.31 µM [activator, full curve] | –
12 | COc1cc(-c2cc(C(=O)Nc3cccc(S(=O)(=O)N(C)C)c3)c3ccccc3n2)cc(OC)c1OC | inconclusive: 6.51 µM [inhibitor, single point] | –
13 | CCOc1ccc(Cl)cc1S(=O)(=O)N1CCC(C(=O)NC2CC2)CC1 | – | inactive: -5.53%
14 | Cc1nnc(Sc2cc(C(=O)NCCCN(C)Cc3ccccc3)c3ccccc3n2)s1 | – | inactive: 7.38%
15 | COc1cccc(NC(=O)CCCOc2cc(=O)n(C)c3ccccc23)c1 | inconclusive: 16.4 µM [activator, partial curve] | –
16 | NC(=O)c1ccc(-c2ncc(-c3ccccc3)o2)cc1 | inconclusive: 0.366 µM [activator, full curve] | –
17 | c1ccc(-c2csc3ncnc(NCCCN4CCOCC4)c23)cc1 | inconclusive: 16.4 µM [inhibitor, partial curve] | –
18 | CN1C(=O)[C@H]2[C@@H](/C=C/c3ccccc3)N3C(=O)CN(Cc4ccc(-c5ccccc5)cc4)C(=O)[C@@]3(Cc3ccccc3)[C@H]2C1=O | – | inactive: 10.7%
19 | C=CCNC(=S)N/N=C/c1ccc(C(F)(F)F)cc1 | active: 4.61 µM | –
20 | CN(CC(=O)N1CCN(c2cccc(Cl)c2)CC1)S(=O)(=O)c1cccs1 | – | inactive: -16.4%
21 | COC(=O)[C@@H](NC(=O)N1CCN(c2cccc(C(F)(F)F)c2)CC1)C(C)C | inconclusive: 23.1 µM [inhibitor, single point] | –
22 | O=C(N/C(=C\c1cn(-c2ccccc2)nc1-c1ccccc1)C(=O)N1CCOCC1)c1ccccc1 | – | inactive: 7.31%
23 | O=C1C/C(=C\c2c(F)cccc2Cl)N2CCC1CC2 | – | inactive: 9.6%
24 | O=C(NCCc1ccc(F)cc1)c1ccc(Cl)c(S(=O)(=O)N2CCOCC2)c1 | inconclusive: 14.6 µM [inhibitor, partial curve] | –

Row | Compound | Potency | activity change, negative = inhibition
25 | O=C(c1ccc(Cl)cc1)[C@@H]1[C@@H]2C(=O)N(c3cccc4ccccc34)C(=O)[C@@H]2C2c3ccccc3C=NN21 (some centres not stated) | – | inactive: 1.37%
26 | C(=N\Nc1nc(-c2ccccc2)cs1)/c1ccncc1 | inconclusive: 5.17 µM [activator, partial curve] | –
27 | Nc1cc(=O)[nH]n1C1CCCCC1 | – | inactive: 5.37%
28 | CCCCc1c(C)nc(Nc2ccc(OC)cc2)[nH]c1=O | – | inactive: 5.99%
29 | CCCCn1c(N)nc2ccccc21 | inconclusive: 6.51 µM [inhibitor, full curve] | –
30 | CCOC(=O)C1(Cc2cccc(OC)c2)CCN(Cc2cccc3cnccc23)CC1 | inconclusive: 16.4 µM [inhibitor, single point] | –
31 | COc1ccc(-c2cc(C(=O)Nc3cc(Cl)ccc3O)no2)cc1 | inconclusive: 10.3 µM [activator, partial curve] | –
32 | Cc1ccc(CNC(=O)c2ccc([N+](=O)[O-])o2)cc1 | inconclusive: 25.9 µM [inhibitor, partial curve] | –
33 | O=C/C=C/c1coc2ccc3ccccc3c2c1=O | inconclusive: 23.1 µM [activator, partial curve, poor fit] | –
34 | O=C(O)/C=C\C(=O)Nc1ccccc1C(=O)NC1CCCCC1 | inconclusive: 16.4 µM [activator, single point] | –
35 | COc1cc(O)c(C(CC(=O)N2CCN(c3ccccc3)CC2)c2ccc3c(c2)OCO3)c(OC)c1 (configuration not stated) | – | inactive: 14.3%
36 | CCc1cc2cc3c(cc2nc1SCC(=O)Nc1nnc(C)s1)OCCO3 | – | inactive: -1.52%
37 | O=C(CCl)Nc1cn(-c2ccccc2)nc1-c1ccccc1 | inconclusive: 14.6 µM [activator, partial curve] | –
38 | Cc1nc(SCc2nc3ccccc3[nH]2)c2oc3ccc(Br)cc3c2n1 | inconclusive: 29.1 µM [inhibitor, single point] | –
39 | O=C(N/N=C/c1ccc2c(c1)OCO2)C(=O)Nc1cccc(Cl)c1 | inconclusive: 18.3 µM [activator, partial curve] | –
40 | O=C(CCl)c1ccc2c(c1)CCN2C(=O)C1CCCCC1 | inconclusive: 20.6 µM [activator, single point] | –
41 | COc1ccccc1Nc1nc(-c2c(C)[nH]c3ccccc23)cs1 | inconclusive: 25.9 µM [activator, single point] | –
42 | CCn1c(=S)[nH]c2cc(C(=O)O)ccc21 | – | inactive: 28.9%
43 | CCOC(=O)c1c(N)sc(C(=O)Nc2ccccc2)c1C | inconclusive: 2.31 µM [activator, full curve] | –
44 | NC(=S)Nc1nccc(-c2cccs2)n1 | inconclusive: 29.1 µM [activator, single point] | –
45 | CNC(=S)NNC(=O)CNc1ccc(C)c(Cl)c1 | – | inactive: -8.15%
46 | CC1CCC(NC(=O)C(=O)Nc2ccc3c(c2)OCO3)CC1 (configuration not stated) | inconclusive: 8.2 µM [activator, partial curve] | –
47 | CC(=O)Oc1ccc(C2OC(=O)c3ccccc3N2C(C)=O)cc1 (configuration not stated) | inconclusive: 29.1 µM [activator, single point] | –
48 | Cc1cccc(-c2noc(-c3ccno3)n2)c1 | inconclusive: 20.6 µM [activator, partial curve] | –

Row | Compound | Potency | activity change, negative = inhibition
49 | CC1CCN(CCCNC(=O)C2CCCN(c3ncnc4c3nc3n4CCCCC3)C2)CC1 (configuration not stated) | – | inactive: 21.5%
50 | CN(C)c1ccc(/C=C(\C#N)c2ccccc2)cc1 | inconclusive: 7.3 µM [activator, partial curve] | –
51 | COc1cccc(NC(=S)N(C)C2CCN(C)CC2)c1 | inconclusive: 29.1 µM [activator, partial curve, poor fit] | –
52 | COc1ccc2c(c1)c(CC(=O)Nc1ccc(C)cc1)c(C)n2C(=O)c1ccc(Cl)cc1 | inconclusive: 20.6 µM [inhibitor, partial curve] | –
53 | CC(=O)Nc1ccc(N2C(=O)CSC2c2c(F)cccc2Cl)cc1 (configuration not stated) | – | inactive: -2.37%
54 | COc1ccc(Oc2cccc(Cl)c2CNC(=O)CCC(=O)O)cc1 | – | inactive: -5.21%
55 | Cc1nc(N2CCN(Cc3ccc(Cl)cc3)CC2)c2oc3ccccc3c2n1 | active: 18.3 µM | –
56 | Cc1cccc(N2CCN(C(c3ccccc3)c3nnnn3CC3CCCO3)CC2)c1C (configuration not stated) | inconclusive: 14.6 µM [inhibitor, partial curve, poor fit] | –
57 | Cn1c(=O)c2cc(NCc3ccccc3)nnc2n(C)c1=O | – | inactive: -17.4%
58 | O=C(Nc1ccc(Cl)cc1)[C@@H]1[C@@H]2C(=O)N(c3cccc(F)c3)C(=O)[C@@H]2[C@H]2C=CC=NN21 | – | inactive: 7.77%
59 | NC(=O)c1cc[n+](CC(=O)c2ccc(NC(=O)c3ccccc3)cc2)cc1 | inconclusive: 18.3 µM [activator, partial curve, poor fit] | –
60 | Cn1c(SCC(=O)Nc2ccc(N3CCOCC3)cc2)nnc1C1CC1 | – | inactive: 18.4%
61 | O=C(Nc1ccncc1)C1CCN(S(=O)(=O)c2ccccc2C(F)(F)F)CC1 | inconclusive: 13 µM [inhibitor, partial curve] | –
62 | N=C1/C(=C/c2ccc(-c3cccc(C(=O)O)c3)o2)C(=O)N=C2SC(CC(=O)N3CCOCC3)=NN12 | inconclusive: 18.3 µM [activator, partial curve] | –
63 | CN(C)c1c(F)cc(C(=O)NC(=O)NCc2cccnc2)cc1F | inconclusive: 20.6 µM [activator, partial curve, poor fit] | –
64 | CCC(Sc1nc(N)c(NC(=O)c2ccc(OC)cc2)c(=O)[nH]1)C(=O)O (configuration not stated) | inconclusive: 29.1 µM [activator, single point] | –
65 | CCc1ccc(NC(=O)c2noc3c2CCC3)cc1 | inconclusive: 1.3 µM [activator, partial curve] | –
66 | O=C(Cn1c(SCc2ccccc2)nc2ccccc21)N1CCOCC1 | inconclusive: 13 µM [activator, partial curve, poor fit] | –
67 | CCOP(=O)(Cc1ccc(C(C)(C)CC(C)=O)o1)OCC | – | inactive: 3.18%
68 | CN(Cc1cccc(Cl)c1Cl)C(=O)c1ccc(NC(=O)CC#N)cc1 | – | inactive: -0.491%
69 | O=C(CSc1nc2ccccc2c(=O)[nH]1)Nc1ccccc1N1CCOCC1 | – | inactive: -3.65%
70 | CCOC(=O)c1c(/N=C/N(C)C)sc(C(=O)OC)c1C | inconclusive: 35.5 µM [inhibitor, single point] | –
71 | CC(C)(C)c1ccc(-c2n[nH]c(=S)n2CCCN2CCOCC2)cc1 | – | inactive: -4.67%
72 | Cc1cccc(OCC(=O)NCC(=O)N/N=C/c2ccc(O)cc2O)c1 | inconclusive: 7.3 µM [inhibitor, partial curve] | –

Copied from the entries so far, 4 compounds:
Row | Compound | Potency | activity change, negative = inhibition
36 | CCc1cc2cc3c(cc2nc1SCC(=O)Nc1nnc(C)s1)OCCO3 | – | inactive: -1.52%
37 | O=C(CCl)Nc1cn(-c2ccccc2)nc1-c1ccccc1 | inconclusive: 14.6 µM [activator, partial curve] | –
38 | Cc1nc(SCc2nc3ccccc3[nH]2)c2oc3ccc(Br)cc3c2n1 | inconclusive: 29.1 µM [inhibitor, single point] | –
39 | O=C(N/N=C/c1ccc2c(c1)OCO2)C(=O)Nc1cccc(Cl)c1 | inconclusive: 18.3 µM [activator, partial curve] | –
